Source: PubChem BioAssay AID1224828 (NIAID, 2016)

Aim: 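Find genes required for NF-kappaB p65 moving into the nucleus after LPS in mouse macrophages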 (primary screen)
Cells: mouse RAW264.7 G9 macrophage reporter cells (GFP-p65, Tnf promoter-mCherry)
Reagents: siRNA pool against mouse genes, 100 nM
Duration: 2 days siRNA transfection, then 40 min LPS before fixation
Treatment: LPS (Salmonella minnesota R595) at 10 ng/ml
Measured: 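Microscopy ratio of nuclear to perinuclear-ring GFP-p65 signal, scaled to the plate median; gene score is the average of two replicate robust z-scores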
Direction: p65 translocation robust z-score: higher = more nuclear NF-kappaB p65 after LPS than the plate median; nuclear/cytoplasmic p65 ratio: higher = more nuclear NF-kappaB p65
Rule for the call: 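Called active when z exceeds 3.3 or falls under -1.56 (median of Tlr4 controls), giving activity score of at least 50; no calls for control wells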
Calls: active = hit (p65 shift raised or lowered); inactive = no clear change
This is a random part of about 17,000 reagents. 762 of all reagents (4.5%) were called active. 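Active calls include both raised and lowered p65 entry, mostly lowered; wells with fewer than 50 cells lack a z-score.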 The raw values are shown without normalisation. Reagents against one gene are numbered here.

no.	Target gene	reagent no.	p65 translocation robust z-score	nuclear/cytoplasmic p65 ratio, rep 1	nuclear/cytoplasmic p65 ratio, rep 2	low cell count flag	Call
1	Pfn2	1	-0.01	1.5	1.36	enough cells to score	inactive
2	Lair1	1	-0.04	1.49	1.36	enough cells to score	inactive
3	Il22ra1	1	0.44	1.55	1.43	enough cells to score	inactive
4	Gpr137c	1	-1.16	1.33	1.19	enough cells to score	inactive
5	Hhipl2	1		1.17	1.16	fewer than 50 cells per well; well left out of scoring	inactive
6	Ankk1	1	-0.74	1.56	1.3	enough cells to score	inactive
7	Rab3c	1	1.51	1.61	1.35	enough cells to score	inactive
8	Cby1	1	1.29	1.68	1.36	enough cells to score	inactive
9	Speg	1	0.85	1.78	1.72	enough cells to score	inactive
10	Creb3	1	-0.38	1.59	1.31	enough cells to score	inactive
11	Tbca	1	-0.49	1.44	1.41	enough cells to score	inactive
12	Kat7	1	-2.39	1.39	0.981	enough cells to score	active
13	Cdh3	1	-0.01	1.56	1.29	enough cells to score	inactive
14	Cdca2	1	0.59	1.42	1.6	enough cells to score	inactive
15	Or10g3	1	1.74	1.87	1.65	enough cells to score	inactive
16	Pias4	1	-0.05	1.58	1.32	enough cells to score	inactive
17	Pklr	1	-1.29	1.5	1.2	enough cells to score	inactive
18	Dhx34	1	-0.01	1.53	1.58	enough cells to score	inactive
19	Bag5	1	-0.51	1.53	1.54	enough cells to score	inactive
20	Hba-a1	1	-0.56	1.36	1.31	enough cells to score	inactive
21	Ush1c	1	-0.63	1.51	1.33	enough cells to score	inactive
22	Rufy3	1	-2.14	1.23	1.27	enough cells to score	active
23	Gip	1	-0.75	1.33	1.28	enough cells to score	inactive
24	App	1	0.12	1.68	1.6	enough cells to score	inactive
25	Yif1a	1	-0.08	1.33	1.31	enough cells to score	inactive
26	Eci1	1	-0.65	1.39	1.28	enough cells to score	inactive
27	Stap2	1		1.46	1.5	fewer than 50 cells per well; well left out of scoring	inactive
28	Jun	1	0.08	1.47	1.41	enough cells to score	inactive
29	Krt71	1	-1.51	1.29	1.27	enough cells to score	inactive
30	Tmem59	1		1.15	1.16	fewer than 50 cells per well; well left out of scoring	inactive
31	Cyp2b9	1	-1.24	1.41	1.56	enough cells to score	inactive
32	Ccdc68	1	1.51	1.93	1.79	enough cells to score	inactive
33	Sigmar1	1	-1.34	1.27	1.24	enough cells to score	inactive
34	Kcna4	1	-1.98	1.25	1.09	enough cells to score	active
35	Atp6ap1	1	-1.35	1.37	1.36	enough cells to score	inactive
36	Cep41	1	1.04	1.43	1.34	enough cells to score	inactive
37	Micu2	1		1.64	1.53	fewer than 50 cells per well; well left out of scoring	inactive
38	Rbm14	1	-0.04	1.39	1.21	enough cells to score	inactive
39	Cxcl12	1	0.04	1.51	1.51	enough cells to score	inactive
40	Or5w1	1	0.56	1.81	1.6	enough cells to score	inactive
41	Stmn3	1	-1.78	1.28	1.31	enough cells to score	active
42	Rinl	1	-0.24	1.35	1.41	enough cells to score	inactive
43	Adcy7	1	0.47	1.61	1.83	enough cells to score	inactive
44	Or4c126	1	1.95	1.81	1.76	enough cells to score	inactive
45	Slc16a6	1	0.28	1.51	1.29	enough cells to score	inactive
46	Camk2d	1	-1.1	1.43	1.31	enough cells to score	inactive
47	Col14a1	1	0.23	1.52	1.38	enough cells to score	inactive
48	Nipa2	1	1.25	1.42	1.41	enough cells to score	inactive
49	Tet3	1	-0.87	1.37	1.79	enough cells to score	inactive
50	Fads3	1	-2.08	1.24	1.22	enough cells to score	active
51	Msrb1	1	-1.3	1.27	1.08	enough cells to score	inactive
52	Ncoa2	1	-0.03	1.46	1.34	enough cells to score	inactive
53	Mapkap1	1	0.17	1.55	1.8	enough cells to score	inactive
54	Mapkap1	2	0.15	1.4	1.37	enough cells to score	inactive
55	Rpl27a	1	-1.34	1.14	1.15	enough cells to score	inactive
56	Gsap	1	-0.32	1.27	1.55	enough cells to score	inactive
57	Helz2	1	-0.98	1.47	1.46	enough cells to score	inactive
58	Slc15a2	1	0.54	1.56	1.24	enough cells to score	inactive
59	Fgd1	1	0.42	1.53	1.41	enough cells to score	inactive
